Legend:
PAMPA-GIT permeability = type: in vitro ADME; settings: PAMPA-GIT predicted absorbed fraction; 0–30% low, 30–69% medium, 70–100% high absorption
[1] = set-up: method as in Literature (reference not given); settings: absorbed fraction of PAMPA-GIT controls; ref Literature (reference not given); cited from earlier work

Fa% (PAMPA-GIT permeability): 8.62%
SMILES: CC(C)NCC(O)COc1ccc(CC(N)=O)cc1 (centres unmarked) [Atenolol]
Fa (Literature) [1]: 21

— paper PMC10144566, “Pharmacokinetic Profile Evaluation of Novel Combretastatin Derivative, LASSBio-1920, as a Promising Colorectal Anticancer Agent” (Pharmaceutics, 2023)
